Structures can show the parent of a compound that is named as a salt. The list shows a part of the results. This data set is noisy: repeats of one test often differ as much as different tests do.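 Human kidney-derived cells stably carry a construct in which eight TEAD-binding elements drive luciferase, measured by luminescence in a drug-repurposing library screen. A hit is any compound whose signal exceeds the plate mean by more than five robust Z scores.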
System: HEK293A TEAD-LUC reporter
Assay: TEAD-luciferase reporter activity (YAP activation), robust Z score vs plate; higher = stronger YAP/TEAD activation
Settings: 24 h

SMILES | TEAD-luciferase reporter activity (compound concentration: 200 nM) | TEAD-luciferase reporter activity (compound concentration: 2 uM) | TEAD-luciferase reporter activity (compound concentration: 10 uM)
CN1CCN(C(=O)c2ccc(CN3CCOCC3)cc2)CC1 | inactive: -0.651 | inactive: -0.707 | inactive: 3.15
CC(C)(C)c1nc(-c2cccc(NS(=O)(=O)c3c(F)cccc3F)c2F)c(-c2ccnc(N)n2)s1 [Dabrafenib mesylate] | inactive: -0.864 | inactive: -1.49 | inactive: 0.242
CNC(=O)c1cc2c(Oc3ccc(NC(=S)NC(=O)Cc4ccccc4)cc3F)ccnc2cc1OC | inactive: 0.0101 | inactive: -2.05 | inactive: 0.585
CCCC(=O)Nc1ccc(Cc2ccccn2)c([N+](=O)[O-])c1 | inactive: 0.349 | inactive: -0.915 | inactive: 1.05
O=C(CO)N1CCC(c2n[nH]c(-c3ccc(Cl)cc3)c2-c2ccncn2)CC1 | inactive: -2.16 | inactive: -0.555 | inactive: 0.949
NC(=O)c1[nH]nc([C@@H]2O[C@H](CO)[C@@H](O)[C@H]2O)c1O | inactive: -0.513 | inactive: -0.371 | inactive: -0.48
C[N+](C)(C)C[C@@H](O)CC(=O)[O-] [levocarnitine, Ajinomoto] | inactive: -0.599 | inactive: 0.186 | inactive: -0.789
CN(C)CCNC(=O)c1cccc2cccnc12 | inactive: 4 | inactive: 2.82 | inactive: -0.116
CCc1cc(OCc2ccc3ccccc3n2)cc2c3c([nH]c12)C(CC)(CC(=O)O)OCC3 (stereo not given) | inactive: -0.0301 | inactive: -0.697 | inactive: -0.374
CC(SC(=O)c1ccccc1)C(=O)NCC(=O)OCc1cccc(COC(=O)CNC(=O)C(C)SC(=O)c2ccccc2)n1 (stereo not given) [dibenzothioline] | inactive: 2.87 | inactive: -1.01 | inactive: -1.07
O=C(C1CCCN1C(=O)C1CC1)N1CCC(c2ccccc2)CC1 (stereo not given) | inactive: -2.23 | – | inactive: -1.94
NC[C@@H]1O[C@H](O[C@H]2[C@@H](O)[C@H](O[C@@H]3[C@@H](O)[C@H](N)C[C@H](N)[C@H]3O[C@H]3O[C@H](CO)[C@@H](O)[C@H](O)[C@H]3N)O[C@@H]2CO)[C@H](N)[C@@H](O)[C@@H]1O [Paromomycin (sulfate)] | – | inactive: -0.477 | –
NC[C@@H]1O[C@H](O[C@H]2[C@@H](O)[C@H](O[C@@H]3[C@@H](O)[C@H](N)C[C@H](N)[C@H]3O[C@H]3O[C@H](CO)[C@@H](O)[C@H](O)[C@H]3N)O[C@@H]2CO)[C@H](N)[C@@H](O)[C@@H]1O [Paromomycin Sulfate] | inactive: -0.616 | – | inactive: -0.916
C[N+]1(C)CCC(OC(=O)C(O)(c2ccccc2)C2CCCC2)C1 (stereo not given) [glycopyrrolate, Chiesi] | – | inactive: 2.01 | –
C[N+]1(C)CCC(OC(=O)C(O)(c2ccccc2)C2CCCC2)C1 (stereo not given) | inactive: -0.825 | – | inactive: 2.74
O=c1cc(-c2ccccc2)oc2cc(O)cc(O)c12 | inactive: 0.796 | – | inactive: 2.58
O=c1cc(-c2ccccc2)oc2cc(O)cc(O)c12 [5,7-Dihydroxyflavone] | – | inactive: 1.11 | –
CCOCCn1nc(C(=O)NS(=O)(=O)c2ccc(C)cc2)c2nc(N(C)CC)nc(Nc3cc(C)ccn3)c21 | inactive: -0.646 | inactive: -1.53 | inactive: -0.371
CC(=O)SC[C@H](Cc1ccc2c(c1)OCO2)C(=O)N[C@@H](C)C(=O)OCc1ccccc1 [Fasidotril] | inactive: -0.256 | inactive: 0.38 | inactive: 2.38
Cc1c(C(=O)Nc2ccc(S(C)(=O)=O)cc2)cn(CCO)c1-c1ccccc1C(F)(F)F [Esaxere] | inactive: -1.18 | inactive: -0.146 | inactive: 0.123
Cc1nc(Nc2ccc(F)cc2)nc(N2CCc3ccccc3C2C)c1C (stereo not given) [revaprazan] | inactive: -0.972 | inactive: -1.65 | inactive: -1.69
CN[C@H](Cc1ccccc1)C(=O)N1CCC[C@H]1C(=O)NC[C@H]1CC[C@H](N)CC1 | inactive: 0.611 | inactive: -1.02 | inactive: 0.484
COc1cccc(-c2c(C)n(Cc3c(F)cccc3C(F)(F)F)c(=O)n(C[C@H](NCCCC(=O)O)c3ccccc3)c2=O)c1F | inactive: 0.811 | inactive: 2.47 | inactive: 0.594
COc1ccc(CC(=O)N2CCC(C(=O)N3CCC(c4ccccc4)CC3)CC2)cc1 | inactive: 1.93 | – | inactive: 1.35
CC[C@H]1OC(=O)[C@H](C)[C@@H](O[C@H]2C[C@@](C)(OC)[C@@H](O)[C@H](C)O2)[C@H](C)[C@@H](O[C@@H]2OC(C)C[C@H](N(C)C)[C@H]2O)[C@](C)(O)C[C@@H](C)C(=O)[C@H](C)[C@@H](O)[C@]1(C)O (stereo not given in full) [erythromycin, Andromaco] | inactive: -1.61 | inactive: -1.58 | inactive: -0.218

Single records, from the list above:
O=C(CO)N1CCC(c2n[nH]c(-c3ccc(Cl)cc3)c2-c2ccncn2)CC1 as listed: TEAD-luciferase reporter activity (compound concentration: 200 nM): inactive: -2.16; TEAD-luciferase reporter activity (compound concentration: 2 uM): inactive: -0.555; TEAD-luciferase reporter activity (compound concentration: 10 uM): inactive: 0.949
O=c1cc(-c2ccccc2)oc2cc(O)cc(O)c12 as listed: TEAD-luciferase reporter activity (compound concentration: 200 nM): inactive: 0.796; TEAD-luciferase reporter activity (compound concentration: 10 uM): inactive: 2.58

Further results

SMILES | TEAD-luciferase reporter activity (compound concentration: 200 nM) | TEAD-luciferase reporter activity (compound concentration: 2 uM) | TEAD-luciferase reporter activity (compound concentration: 10 uM)
CN1CCCCC1C(C)(C)OC(=O)C(c1ccccc1)c1ccccc1 (stereo not given) | inactive: -1.47 | inactive: -2.19 | inactive: -0.825
CCn1c(=O)c2ccccc2n(Cc2ccc([N+](=O)[O-])cc2)c1=O | inactive: -0.291 | inactive: 0.606 | inactive: -0.854
CC(C)(C)C(=O)Nc1ccc(S(=O)(=O)Nc2ccccc2)cc1 | inactive: -0.507 | inactive: -0.793 | inactive: -0.54
CN(CC(=O)N1CCOCC1)Cc1c(Cl)cccc1NC(=O)c1ccccc1 | inactive: -0.614 | inactive: -0.932 | inactive: 0.761
Cc1cc(C)c2c3ccccc3n(Cc3ccc([C@H](C(=O)N[C@@H](CO)c4ccccc4)C4CCCC4)cc3)c2n1 [Implitapide] | inactive: 0.218 | inactive: -0.516 | inactive: 0.495
CCCCCCCCNC(=N)NC(=N)NCc1ccc(Cl)c(Cl)c1 | inactive: -0.768 | inactive: 1.23 | inactive: 1.52
Nc1nc(-c2ccc(NC(=O)CN(Cc3ccccc3)C(=O)c3ccncc3)cc2)cs1 | inactive: -0.823 | inactive: 0.0332 | inactive: 3.25
O=C1NC(=O)C2(c3ccc(Cl)cc3)CC12 (stereo not given) | inactive: 0.592 | inactive: -0.355 | inactive: -0.951
Cc1ccccc1C(=O)N1CCC(C(=O)N2CCC(N3Cc4ccccc4C3=O)CC2)CC1 | inactive: -0.0134 | – | inactive: 3.66
C[C@H](c1ccc(F)cc1)N(Cc1cccc(C(=O)O)c1)C(=O)c1cnc2ccccc2c1 | inactive: -1.34 | inactive: 0.685 | inactive: 0.331
CCCCCCCCCCOc1c(OC)cc(C(N)=O)cc1OC | inactive: -0.155 | inactive: -0.839 | inactive: 1.25
CCOC(=O)C1=C(C)NC(C)=C(C(=O)OCCN2C(=O)c3ccccc3S2(=O)=O)C1C (stereo not given) [Trombodipine] | inactive: 1.22 | inactive: -0.549 | inactive: -0.579
CN(O)C(=O)CCc1ccc2c(c1)C(=O)c1ccccc1CO2 | inactive: -1.56 | inactive: -0.224 | inactive: 0.896
Cn1c(=O)c(C(=O)NCCO)c(O)c2ncc(Cc3ccc(F)cc3)cc21 | inactive: -0.0469 | inactive: -0.802 | inactive: 0.277
CCCCN1CCC(COC(=O)c2cc(Cl)c(N)c3c2OCCO3)CC1 | inactive: -0.637 | inactive: 0.974 | inactive: 0.383
CC[N+](C)(C)c1cccc(O)c1 | inactive: -2.35 | inactive: -1.52 | inactive: -1.13
N[C@@H](Cc1cc(CP(=O)(O)O)cc(-c2ccccc2Cl)c1)C(=O)O | inactive: 0.323 | inactive: -1.4 | inactive: 2.71
N=C(N)NCCC[C@@H](N)C(=O)N[C@H](CCCNC(=N)N)C(=O)N[C@H](CCCNC(=N)N)C(=O)N[C@H](CCCNC(=N)N)C(=O)N[C@H](CCCNC(=N)N)C(=O)N[C@H](CCCNC(=N)N)C(N)=O [Hexa-D-Arginine] | inactive: -0.908 | inactive: -0.645 | inactive: -0.766
O=C1CCCC=C1C1COCCN1O (stereo not given) | inactive: -0.986 | inactive: -0.18 | inactive: 0.316
CC(C)(C)C#Cc1cc(N(C(=O)[C@H]2CC[C@H](C)CC2)[C@H]2CC[C@@H](O)CC2)c(C(=O)O)s1 [lomibuvir (tablet)] | active: 7.66 | inactive: 2.33 | inactive: -0.962
CNC(=O)c1ccc2c(c1)CCO[C@H]2CCN1CCN(c2ccc(C(N)=O)cc2)CC1 | inactive: 0.295 | inactive: 0.73 | inactive: 0.344
C[C@@H]1O[C@@H](OC[C@H]2O[C@@H](Oc3c(-c4ccc(O)c(O)c4)oc4cc(O)cc(O)c4c3=O)[C@H](O)[C@@H](O)[C@@H]2O)[C@H](O)[C@H](O)[C@H]1O | inactive: -0.427 | – | inactive: 0.701
C[C@@H]1O[C@@H](OC[C@H]2O[C@@H](Oc3c(-c4ccc(O)c(O)c4)oc4cc(O)cc(O)c4c3=O)[C@H](O)[C@@H](O)[C@@H]2O)[C@H](O)[C@H](O)[C@H]1O [Rutin] | – | inactive: 0.993 | –
CCOc1cc(N)c([N+](=O)[O-])cc1C(=O)NC1CCN(CC2CC=CCC2)CC1 (stereo not given) [Cinitapride hydrogen tartrate] | inactive: -1.45 | inactive: 0.158 | inactive: 2.65
CN(C)CCO/N=C(\C=C\c1ccc(O)cc1)c1ccccc1F [Eplivanserin] | inactive: -0.328 | inactive: -1.69 | inactive: 1.87
